Data as given in PubChem BioAssay AID1259254 (NCATS, 2017).

Screen: 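Finding genes that stop cells copying their DNA twice in one cycle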 (primary screen)
Cells: human HCT116 colorectal cancer cells
Reagent: single siRNA against human genes
Time to read-out: 3 days
Detection: 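Nuclei stained with Hoechst and imaged; cell-cycle phase assigned by DNA content; G2 share scaled per plate, non-targeting siRNA 0%, GMNN siRNA 100%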
Direction: G2 robust z-score and G2 cells, % of GMNN control: higher = more G2 cells, more excess DNA replication
Hit rule: 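An siRNA counts as active if its G2 robust z-score lies at least 5 MADs above the screen median; here such calls match roughly 38% of GMNN control or more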
The deposit covers about 59,000 reagents; this is a part drawn at random. Of all reagents, about 1,550 (2.6%) are marked active. 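G2 share is only a proxy for re-replication; each gene was hit by three separate siRNAs, and active genes were retested.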 Reagents against one gene are numbered here. Further read-outs or replicates are left out here. Not stated in the record: the amount of reagent.

| gene symbol | siRNA no. | G2 robust z-score | G2 cells, % of GMNN control | Call |
| --- | --- | --- | --- | --- |
| KRTAP5-11 | 1 | -0.646 | -1.58 | inactive |
| KRTAP5-11 | 2 | 0.946 | 9.62 | inactive |
| KRTAP5-11 | 3 | -0.546 | -0.877 | inactive |
| FBLIM1 | 1 | 0.401 | 5.79 | inactive |
| FBLIM1 | 2 | -0.304 | 0.831 | inactive |
| FBLIM1 | 3 | 0.201 | 4.38 | inactive |
| SMIM14 | 1 | -0.649 | -1.6 | inactive |
| SMIM14 | 2 | 0.243 | 4.68 | inactive |
| SMIM14 | 3 | 0.708 | 7.95 | inactive |
| SLAMF6 | 1 | 3.32 | 26.3 | inactive |
| SLAMF6 | 2 | 0.933 | 9.54 | inactive |
| SLAMF6 | 3 | -0.897 | -3.34 | inactive |
| ADRB1 | 1 | -0.128 | 2.06 | inactive |
| ADRB1 | 2 | -0.416 | 0.0379 | inactive |
| ADRB1 | 3 | -0.00355 | 2.94 | inactive |
| NOL8 | 1 | 0.0255 | 3.15 | inactive |
| NOL8 | 2 | 1.4 | 12.8 | inactive |
| NOL8 | 3 | 2.24 | 18.7 | inactive |
| MRNIP | 1 | -0.161 | 1.84 | inactive |
| MRNIP | 2 | -0.0401 | 2.69 | inactive |
| MRNIP | 3 | 0.195 | 4.34 | inactive |
| LINC01139 | 1 | 0.0598 | 3.39 | inactive |
| LINC01139 | 2 | -0.171 | 1.76 | inactive |
| LINC01139 | 3 | 1.73 | 15.2 | inactive |
| SOWAHD | 1 | 1.16 | 11.1 | inactive |
| SOWAHD | 2 | -0.619 | -1.39 | inactive |
| SOWAHD | 3 | -1.1 | -4.76 | inactive |
| SUGT1P4-STRA6LP-CCDC180 | 1 | -0.76 | -2.38 | inactive |
| SUGT1P4-STRA6LP-CCDC180 | 2 | 0.143 | 3.97 | inactive |
| SUGT1P4-STRA6LP-CCDC180 | 3 | 7.85 | 58.2 | active |
| MAPK6 | 1 | -1.71 | -9.03 | inactive |
| MAPK6 | 2 | -1.27 | -5.99 | inactive |
| MAPK6 | 3 | -0.215 | 1.46 | inactive |
| TIFAB | 1 | 0.879 | 9.15 | inactive |
| TIFAB | 2 | -0.792 | -2.61 | inactive |
| TIFAB | 3 | 0.367 | 5.55 | inactive |
| PNP | 1 | 0.0999 | 3.67 | inactive |
| PNP | 2 | 0.107 | 3.72 | inactive |
| PNP | 3 | -0.0822 | 2.39 | inactive |
| MTTP | 1 | -1.23 | -5.68 | inactive |
| MTTP | 2 | -1.41 | -6.99 | inactive |
| MTTP | 3 | -0.585 | -1.15 | inactive |
| SERPINA6 | 1 | 0.927 | 9.49 | inactive |
| SERPINA6 | 2 | -0.393 | 0.203 | inactive |
| SERPINA6 | 3 | 0.715 | 8 | inactive |

Laid out differently: entries from further up.
MTTP #1 — G2 robust z-score: -1.23; G2 cells, % of GMNN control: -5.68; Call: inactive
MTTP #2 — G2 robust z-score: -1.41; G2 cells, % of GMNN control: -6.99; Call: inactive
MTTP #3 — G2 robust z-score: -0.585; G2 cells, % of GMNN control: -1.15; Call: inactive
SERPINA6 #1 — G2 robust z-score: 0.927; G2 cells, % of GMNN control: 9.49; Call: inactive

The results go on:
| gene symbol | siRNA no. | G2 robust z-score | G2 cells, % of GMNN control | Call |
| --- | --- | --- | --- | --- |
| RSKR | 1 | 1.08 | 10.6 | inactive |
| RSKR | 2 | 0.658 | 7.6 | inactive |
| RSKR | 3 | -0.262 | 1.13 | inactive |
| RSKR | 4 | 0.528 | 6.68 | inactive |
| RSKR | 5 | 1.63 | 14.5 | inactive |
| RSKR | 6 | 1.18 | 11.3 | inactive |
| AANAT | 1 | 1.31 | 12.2 | inactive |
| AANAT | 2 | -0.931 | -3.58 | inactive |
| AANAT | 3 | -0.694 | -1.92 | inactive |
| TAFA5 | 1 | 6.66 | 49.9 | active |
| TAFA5 | 2 | -0.535 | -0.797 | inactive |
| TAFA5 | 3 | 0.231 | 4.59 | inactive |
| RAB37 | 1 | 0.734 | 8.13 | inactive |
| RAB37 | 2 | -0.973 | -3.88 | inactive |
| RAB37 | 3 | 2.75 | 22.3 | inactive |
| LAMB2 | 1 | -0.697 | -1.94 | inactive |
| LAMB2 | 2 | 0.577 | 7.03 | inactive |
| LAMB2 | 3 | 0.494 | 6.45 | inactive |
| CCDC78 | 1 | -0.155 | 1.88 | inactive |
| CCDC78 | 2 | -0.337 | 0.594 | inactive |
| CCDC78 | 3 | 4.97 | 37.9 | inactive |
| C2orf68 | 1 | -0.0456 | 2.65 | inactive |
| C2orf68 | 2 | -0.871 | -3.16 | inactive |
| C2orf68 | 3 | -0.534 | -0.788 | inactive |
